# Not every detail of the peptide structures is certain; ends, links or a residue may be inferred. Peptide text beside a SMILES is read from it.
# System: IHNV nucleocapsid-N gene
# Experiment: Absolute quantification of IHNV copy number (N gene) in FHM cells by qRT-PCR
# Type: cell-based, infectious hematopoietic necrosis virus
# Settings: Octominin 500 μg/mL, after 6 hpi, compared to cells challenged only with IHNV
smiles,measurement,value
CC[C@H](C)[C@H](NC(=O)[C@H](C)NC(=O)[C@H](CCCCN)NC(=O)CNC(=O)[C@H](C)NC(=O)[C@H](Cc1c[nH]cn1)NC(=O)[C@@H](NC(=O)[C@H](C)NC(=O)CNC(=O)[C@H](CCCNC(=N)N)NC(=O)[C@@H](NC(=O)[C@H](CC(C)C)NC(=O)[C@H](Cc1c[nH]c2ccccc12)NC(=O)CN)[C@@H](C)CC)[C@@H](C)CC)C(=O)N[C@@H](Cc1c[nH]cn1)C(=O)NCC(=O)N[C@@H](CC(C)C)C(=O)N[C@H](C(=O)N[C@@H](Cc1c[nH]cn1)C(=O)N[C@@H](CCCNC(=N)N)C(=O)N[C@@H](CCCNC(=N)N)C(=O)N[C@@H](CCCNC(=N)N)C(=O)N[C@@H](Cc1c[nH]cn1)C(=O)O)[C@@H](C)CC [Octominin] (H-GWLIRGAIHAGKAIHGLIHRRRH-OH),IHNV virus copy number (virus replication),reduced in a time-dependent manner

# — US20250041382A1, “ANTIVIRAL COMPOSITION COMPRISING OCTOMININ” (priority 2023, published 2025)
